The supplement of paper PMC11546906
Structures can show the parent of a compound that is named as a salt. Some of the results follow. Repeats in this data set agree poorly, so a single value says little.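 FDA-approved drugs were each paired with colistin at one-eighth its MIC and screened against a multidrug-resistant, mcr-1-positive clinical E. coli isolate, with OD600 read after 24 h. Drug-free bacteria served as growth control, plain broth as blank. Combinations were active if OD600 dropped below 0.2.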

system: Escherichia coli 42 (mcr-1-positive clinical isolate); test: OD600 after 24 h growth with compound plus colistin (absorbance units (OD600)); higher = more bacterial growth (less inhibition); settings: first compound 25 µM; colistin concentration 0.5 ug/mL; incubation time 24 h; 37 °C

| SMILES | OD600 |
| --- | --- |
| COc1cc2ncnc(Nc3ccc(F)c(Cl)c3)c2cc1NC(=O)/C=C/CN1CCCCC1 [Dacomitinib] + CCC(C)CCCC(=O)N[C@@H](CCN)C(=O)N[C@H](C(=O)N[C@@H](CCN)C(=O)N[C@H]1CCNC(=O)[C@H]([C@@H](C)O)NC(=O)[C@H](CCN)NC(=O)[C@H](CCN)NC(=O)[C@H](CC(C)C)NC(=O)[C@@H](CC(C)C)NC(=O)[C@H](CCN)NC1=O)[C@@H](C)O [colistin] | inactive: 0.931 |
| COC1=CC(=O)C[C@@H](C)[C@]12Oc1c(Cl)c(OC)cc(OC)c1C2=O [Griseofulvin] + CCC(C)CCCC(=O)N[C@@H](CCN)C(=O)N[C@H](C(=O)N[C@@H](CCN)C(=O)N[C@H]1CCNC(=O)[C@H]([C@@H](C)O)NC(=O)[C@H](CCN)NC(=O)[C@H](CCN)NC(=O)[C@H](CC(C)C)NC(=O)[C@@H](CC(C)C)NC(=O)[C@H](CCN)NC1=O)[C@@H](C)O [colistin] | inactive: 1.03 |
| C[Se]CC[C@H](N)C(=O)O [Selenomethionine] + CCC(C)CCCC(=O)N[C@@H](CCN)C(=O)N[C@H](C(=O)N[C@@H](CCN)C(=O)N[C@H]1CCNC(=O)[C@H]([C@@H](C)O)NC(=O)[C@H](CCN)NC(=O)[C@H](CCN)NC(=O)[C@H](CC(C)C)NC(=O)[C@@H](CC(C)C)NC(=O)[C@H](CCN)NC1=O)[C@@H](C)O [colistin] | inactive: 0.999 |
| CN(C)C/C=C/C(=O)Nc1cc2c(Nc3ccc(F)c(Cl)c3)ncnc2cc1O[C@H]1CCOC1 [Afatinib] + CCC(C)CCCC(=O)N[C@@H](CCN)C(=O)N[C@H](C(=O)N[C@@H](CCN)C(=O)N[C@H]1CCNC(=O)[C@H]([C@@H](C)O)NC(=O)[C@H](CCN)NC(=O)[C@H](CCN)NC(=O)[C@H](CC(C)C)NC(=O)[C@@H](CC(C)C)NC(=O)[C@H](CCN)NC1=O)[C@@H](C)O [colistin] | inactive: 0.926 |
| CCOC(=O)[C@H](CCc1ccccc1)N[C@H]1CCc2ccccc2N(CC(=O)O)C1=O [Benazepril hydrochloride] + CCC(C)CCCC(=O)N[C@@H](CCN)C(=O)N[C@H](C(=O)N[C@@H](CCN)C(=O)N[C@H]1CCNC(=O)[C@H]([C@@H](C)O)NC(=O)[C@H](CCN)NC(=O)[C@H](CCN)NC(=O)[C@H](CC(C)C)NC(=O)[C@@H](CC(C)C)NC(=O)[C@H](CCN)NC1=O)[C@@H](C)O [colistin] | inactive: 0.935 |
| Cc1cccc(Nc2ccncc2S(=O)(=O)NC(=O)NC(C)C)c1 [Torsemide] + CCC(C)CCCC(=O)N[C@@H](CCN)C(=O)N[C@H](C(=O)N[C@@H](CCN)C(=O)N[C@H]1CCNC(=O)[C@H]([C@@H](C)O)NC(=O)[C@H](CCN)NC(=O)[C@H](CCN)NC(=O)[C@H](CC(C)C)NC(=O)[C@@H](CC(C)C)NC(=O)[C@H](CCN)NC1=O)[C@@H](C)O [colistin] | inactive: 0.769 |
| Nc1ccn([C@@H]2O[C@H](CO)[C@@H](O)C2(F)F)c(=O)n1 [Gemcitabine] + CCC(C)CCCC(=O)N[C@@H](CCN)C(=O)N[C@H](C(=O)N[C@@H](CCN)C(=O)N[C@H]1CCNC(=O)[C@H]([C@@H](C)O)NC(=O)[C@H](CCN)NC(=O)[C@H](CCN)NC(=O)[C@H](CC(C)C)NC(=O)[C@@H](CC(C)C)NC(=O)[C@H](CCN)NC1=O)[C@@H](C)O [colistin] | inactive: 1.25 |
| CC[C@H]1OC(=O)[C@H](C)[C@@H](O[C@H]2C[C@@](C)(OC)[C@@H](O)[C@H](C)O2)[C@H](C)[C@@H](O[C@@H]2O[C@H](C)C[C@H](N(C)C)[C@H]2O)[C@](C)(O)C[C@@H](C)[C@@H]2N[C@@H](COCCOC)O[C@H]([C@H]2C)[C@]1(C)O [Dirithromycin] + CCC(C)CCCC(=O)N[C@@H](CCN)C(=O)N[C@H](C(=O)N[C@@H](CCN)C(=O)N[C@H]1CCNC(=O)[C@H]([C@@H](C)O)NC(=O)[C@H](CCN)NC(=O)[C@H](CCN)NC(=O)[C@H](CC(C)C)NC(=O)[C@@H](CC(C)C)NC(=O)[C@H](CCN)NC1=O)[C@@H](C)O [colistin] | active: 0.036 |
| Cc1nc(Nc2ncc(C(=O)Nc3c(C)cccc3Cl)s2)cc(N2CCN(CCO)CC2)n1 [Dasatinib] + CCC(C)CCCC(=O)N[C@@H](CCN)C(=O)N[C@H](C(=O)N[C@@H](CCN)C(=O)N[C@H]1CCNC(=O)[C@H]([C@@H](C)O)NC(=O)[C@H](CCN)NC(=O)[C@H](CCN)NC(=O)[C@H](CC(C)C)NC(=O)[C@@H](CC(C)C)NC(=O)[C@H](CCN)NC1=O)[C@@H](C)O [colistin] | inactive: 0.792 |
